# Measurements published in PubChem BioAssay AID504834 (National Center for Advancing Translational Sciences (NCATS), 2011).
# Out of some 320,000 compounds screened, about 22,000 (6.9%) were called active. Inconclusive results, whose numbers are uncertain, are shown with a selection of clear calls. Calls follow the shape of the dose curve; as a rule, active = well fitted inhibition curve with a large enough effect; inconclusive = small, poorly fitted or top-dose-only effect, or another doubt; inactive = no such curve, though single readings can be large or run the other way. A potency beside an inconclusive call is a rough fit, not a confirmed value.
# Test: Primary qHTS for delayed death inhibitors of the malarial parasite plastid, 96 hour incubation
# Settings: P. falciparum luciferase reporter growth; series mostly up to 28.7 µM; activity change, negative = inhibition: at the top concentration
# Outline: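 Two parasite generations (96 h, 37 C, 5% CO2) of compound exposure in infected erythrocytes (0.05% parasitemia, 2% hematocrit). Luciferase-reporter P. falciparum; decreased luminescence indicates inhibited growth, aimed at apicoplast-acting delayed death.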
# % is scaled to controls: 0 for no effect and ±100 for the full control effect; potency is read from the fitted curve at half-maximal effect.
SMILES,"activity change, negative = inhibition",Potency
CCCc1cc(C(=O)NNC(=S)Nc2cccc(C)c2)cs1,inactive: 142%,
CC(=O)Nc1ccc(Nc2ncnc3c2nnn3Cc2ccccc2Cl)cc1,,"inconclusive: 18.5 µM [inhibitor, single point]"
Cc1cc(Cl)ccc1OC(C)C(=O)Nc1ccc([N+](=O)[O-])cn1 (stereo not given),inactive: -4.77%,
Cc1nc(/N=C(\N)NC(=O)N2c3ccccc3Sc3ccccc32)nc2ccccc12,,"inconclusive: 18.5 µM [inhibitor, single point]"
O=C(CN(C(=O)CNC(=O)c1cccs1)c1ccccc1)NC1CCCCC1,inactive: -6.87%,
Cc1cc2nc(-c3ccc(SCC(=O)NC(C)C)nc3)[nH]c2cc1C,inactive: -25.7%,
COCCCNc1nc2c(c(=O)[nH]c(=O)n2C)n1CC(O)COc1ccccc1 (stereo not given),,"inconclusive: 9.28 µM [inhibitor, single point]"
COc1ccc(-n2ncc3c(N4CCCc5ccccc54)ncnc32)cc1,,active: 13.1 µM
COc1ccc(NC(=S)Nc2ccccc2C(F)(F)F)cc1,inactive: 31.1%,
O=C(NC1CCCCC1)C(Cc1ccccc1)NS(=O)(=O)c1cccs1 (stereo not given),,"inconclusive: 14.7 µM [inhibitor, single point]"
COc1ccc(-c2csc(NC(=O)CCCc3cccs3)n2)cc1,,"inconclusive: 2.08 µM [inhibitor, partial curve, poor fit]"
CC12CCC3C(CC=C4CC(O)CCC43C)C1C/C(=C\c1ccccc1F)C2=O (stereo not given),,active: 5.86 µM
COCCNC(=O)CN1CCC(NC(=O)c2ccco2)CC1,inactive: 20.2%,
Cc1cccc(CC(C)NC(=O)CCc2nnc(CCCCc3ccccc3)o2)n1 (stereo not given),,"inconclusive: 8.28 µM [inhibitor, partial curve, poor fit]"
COc1ccccc1CN1CCN(C(CC(C)C)c2nnnn2Cc2cccs2)CC1 (stereo not given),inactive: 57.8%,
O=C1/C(=N/n2cnnc2)c2ccccc2N1Cc1ccccc1,,active: 9.28 µM
O=C(CSC1=Nc2ccccc2C2=NC(CC(=O)N3CCN(c4ccccc4)CC3)C(=O)N12)NCC1CCCO1 (stereo not given),,"inconclusive: 18.5 µM [inhibitor, single point]"
Cc1cc(=O)[nH]c(SCC(=O)Nc2ccc(F)c([N+](=O)[O-])c2)n1,,"inconclusive: 18.5 µM [inhibitor, single point]"
CCCCS(=O)(=O)N1CCN(S(=O)(=O)c2cccs2)CC1,,"inconclusive: 9.28 µM [inhibitor, partial curve]"
Cc1c(N=C2SCC(=O)N2/N=C/c2ccccc2Cl)c(=O)n(-c2ccccc2)n1C,,"inconclusive: 0.185 µM [inhibitor, full curve, poor fit]"
COc1ccccc1N/C=C1/Sc2cc(Cl)ccc2NC1=O,inactive: -32.5% [at 1.15 µM],
CCN(CC(=O)Nc1ccc(NC(C)=O)cc1)C(=O)COc1ccccc1-c1ccccc1,,"inconclusive: 14.7 µM [inhibitor, single point]"
CCOCCOC(=O)C1=C(C)NC(=O)NC1c1ccc2c(c1)OCO2 (stereo not given),,"inconclusive: 10.4 µM [inhibitor, partial curve, poor fit]"
C/C(N)=C(/C#N)C(=O)CSc1cc(C)c2ccccc2n1,inactive: 32.5%,

SMILES,"activity change, negative = inhibition",Potency
CN1CCCNc2nc3ccccc3nc21,,"inconclusive: 0.117 µM [inhibitor, partial curve, poor fit]"
CC(=O)c1ccc(N/C=C\C(=O)c2ccc(C)cc2)cc1,inactive: 31%,
O=c1[nH]c2cc3c(cc2cc1CN(CCc1ccccc1)Cc1nnnn1CC1CCCO1)OCO3 (stereo not given),,"inconclusive: 9.28 µM [inhibitor, partial curve, poor fit]"
Nc1nonc1-n1nnc(C(=O)N/N=C/c2ccc(OCc3ccccc3F)cc2)c1CN1CCCCC1,,"inconclusive: 10.4 µM [inhibitor, partial curve, poor fit]"
Cc1cccc(N2CCN(C(=O)c3ccc4nc[nH]c4c3)CC2)c1C,,"inconclusive: 18.5 µM [inhibitor, single point]"
O=C1CCc2cc(S(=O)(=O)N3CCCCC3)cc3c2N1CC3,,"inconclusive: 18.5 µM [inhibitor, single point]"
COc1ccc(NC(=S)NCc2ccccc2)c(OC)c1,,"inconclusive: 18.5 µM [inhibitor, single point]"
COc1ccc(S(=O)(=O)NC2CCCCCC2)c(OC)c1,,"inconclusive: 18.5 µM [inhibitor, single point]"
COc1ccc(F)cc1S(=O)(=O)N1CCC2(CC1)OCCN2S(=O)(=O)c1cccs1,,"inconclusive: 18.5 µM [inhibitor, single point]"
COc1ccc(C(=O)NC(=S)N(Cc2ccccc2)Cc2ccccc2)cc1,,"inconclusive: 18.5 µM [inhibitor, single point]"
CCc1ccccc1NC(=S)N1CCC(C(=O)c2ccc(F)cc2)CC1,inactive: -11.3%,
Cc1ccc(NC(=O)CCC(=O)OCC(=O)c2ccc(Oc3ccc([N+](=O)[O-])cc3)cc2)c(C)c1,,"inconclusive: 2.62 µM [inhibitor, full curve, poor fit]"
COCCn1cnnc1SCC(=O)Nc1cccc(S(=O)(=O)N(C)c2ccccc2)c1,,"inconclusive: 11.7 µM [inhibitor, partial curve, poor fit]"
COC(=O)C1=C(C)N(c2ccc(OC)cc2)C(C)=C(C(=O)OC)C1c1ccc(OC)cc1,,"inconclusive: 2.94 µM [inhibitor, full curve]"
Cc1nc2ccc(C(=O)N3CCN(c4ccccc4)CC3)cc2s1,inactive: -6.37%,
CCOc1ccccc1NC(=O)CSc1nnnn1C1CCCC1,,"inconclusive: 13.1 µM [inhibitor, single point]"
CCCCN(CCCC)CCNC(=O)c1cn(CC)c2ccc(S(=O)(=O)N3CCCC3)cc2c1=O,inactive: 0.957%,
CCCOc1ccccc1OCC(=O)Nc1cccc(S(=O)(=O)NC2=NCCC2)c1,,"inconclusive: 9.28 µM [inhibitor, single point]"
CCOC(=O)N1CCN(S(=O)(=O)Cc2ccccc2)CC1,inactive: -9.79%,
Nc1nnc(CCCCCc2nnc(N)s2)s1,inactive: 1.02%,
O=C(CCS(=O)(=O)c1ccccc1)NC1CCCCC1,,"inconclusive: 11.7 µM [inhibitor, single point]"
Cn1c(Cl)nc2c1c(=O)n(Cc1cccc(Br)c1)c(=O)n2C,inactive: 56.5%,
COc1ccc(OCCCC(=O)N(C)CC(=O)Nc2ccccc2Cl)cc1,,"inconclusive: 14.7 µM [inhibitor, single point]"

# Grouped by structure, the entries above containing a nitro group on carbon.
SMILES,"activity change, negative = inhibition",Potency
Cc1cc(Cl)ccc1OC(C)C(=O)Nc1ccc([N+](=O)[O-])cn1 (stereo not given),inactive: -4.77%,
Cc1cc(=O)[nH]c(SCC(=O)Nc2ccc(F)c([N+](=O)[O-])c2)n1,,"inconclusive: 18.5 µM [inhibitor, single point]"
Cc1ccc(NC(=O)CCC(=O)OCC(=O)c2ccc(Oc3ccc([N+](=O)[O-])cc3)cc2)c(C)c1,,"inconclusive: 2.62 µM [inhibitor, full curve, poor fit]"

# (continued)

SMILES,"activity change, negative = inhibition",Potency
O=C(NCCN1CCOCC1)c1ccc(NS(=O)(=O)c2cccc([N+](=O)[O-])c2)cc1,inactive: 28.7%,
O=C(Nc1ccnn1C1CCN(C(=O)c2ccc(Cl)cc2)CC1)C1CC1,inactive: 16.5%,
CCCNc1c(NS(=O)(=O)c2ccc3c(c2)CCCC3)c(=O)oc2ccccc12,,"inconclusive: 10.4 µM [inhibitor, single point]"
c1ccc(Cc2ccc(OCCn3ccnc3)cc2)cc1,,"inconclusive: 13.1 µM [inhibitor, single point]"
O=C(c1ccco1)N(CCC(c1ccccc1)c1ccco1)Cc1ccco1 (stereo not given),,"inconclusive: 0.0329 µM [inhibitor, full curve, poor fit]"
COc1cccc(N(CC(=O)NCCSCc2ccco2)S(=O)(=O)c2ccccc2)c1,,"inconclusive: 8.28 µM [inhibitor, partial curve]"
CCn1c(SCC(=O)Nc2cc(C)on2)nc2c1c(=O)n(C)c(=O)n2C,,"inconclusive: 11.7 µM [inhibitor, single point]"
COC(=O)C1=C(c2ccc(OC)cc2)OC(=O)C1(C)C,,"inconclusive: 18.5 µM [inhibitor, single point]"
NC(N)=NCc1cccc(I)c1,,active: 10.7 µM
NS(=O)(=O)c1ccc(NC(=O)c2cc(-c3ccccc3O)n[nH]2)cc1,,"inconclusive: 0.465 µM [inhibitor, partial curve, poor fit]"
CC(C)Nc1nnc(SCC(=O)c2c(N)n(Cc3ccccc3)c(=O)n(C)c2=O)s1,,active: 9.28 µM
COc1ccc(-c2oc(=O)c3cc(OC)c(OC)cc3c2/C=C/c2cccc([N+](=O)[O-])c2)cc1,,"inconclusive: 11.7 µM [inhibitor, single point]"
COc1cccc(C(=O)N2CCN(Cc3cn[nH]c3-c3ccc(F)cc3F)CC2)c1,,"inconclusive: 4.15 µM [inhibitor, partial curve]"
COc1ccccc1N1CCN(C(=O)C2CCN(S(=O)(=O)c3ccc(C)cc3)CC2)CC1,,"inconclusive: 0.0037 µM [inhibitor, full curve, poor fit]"
COc1ccc(C(=O)NC(=S)Nc2nc(C)cc(C)n2)cc1Br,,"inconclusive: 14.7 µM [inhibitor, single point]"
COc1cccc(NC(=O)c2ccccc2)c1,inactive: 83.2%,
c1ccc(CSc2nnc3c4ccccc4c4ccccc4c3n2)cc1,inactive: 64.2%,
Cc1ccc(NC(=O)c2cccc(OCc3c(C)noc3C)c2)cc1S(=O)(=O)Nc1ccccc1Cl,,"inconclusive: 0.104 µM [inhibitor, full curve, poor fit]"
S=C(NCc1ccncc1)Nc1cccc(Cl)c1,inactive: 42.5%,
CC1(C)CC(=O)c2c(O)cc(OCc3ccc([N+](=O)[O-])cc3)cc2O1,inactive: 213%,
Cc1cccn2c(=O)c(/C=C(\C#N)C(=O)NC3CCS(=O)(=O)C3)c(Oc3ccc(F)cc3)nc12 (stereo not given),,"inconclusive: 2.94 µM [inhibitor, full curve, poor fit]"
O=C(CN1CCCCC1)Nc1cccc(Oc2ccccc2)c1,,"inconclusive: 4.65 µM [inhibitor, single point]"

# Filtered by structure, those above containing bromine.
SMILES,"activity change, negative = inhibition",Potency
Cn1c(Cl)nc2c1c(=O)n(Cc1cccc(Br)c1)c(=O)n2C,inactive: 56.5%,
COc1ccc(C(=O)NC(=S)Nc2nc(C)cc(C)n2)cc1Br,,"inconclusive: 14.7 µM [inhibitor, single point]"
